These are yes or no findings as the source states them, for the method shown. In cells and extracts the contact can be indirect. Some entries that bind do so weakly or less than the wild type.

By UniProt entry, the sequences of proteins in these tests, tags left out.
UniProt P03427: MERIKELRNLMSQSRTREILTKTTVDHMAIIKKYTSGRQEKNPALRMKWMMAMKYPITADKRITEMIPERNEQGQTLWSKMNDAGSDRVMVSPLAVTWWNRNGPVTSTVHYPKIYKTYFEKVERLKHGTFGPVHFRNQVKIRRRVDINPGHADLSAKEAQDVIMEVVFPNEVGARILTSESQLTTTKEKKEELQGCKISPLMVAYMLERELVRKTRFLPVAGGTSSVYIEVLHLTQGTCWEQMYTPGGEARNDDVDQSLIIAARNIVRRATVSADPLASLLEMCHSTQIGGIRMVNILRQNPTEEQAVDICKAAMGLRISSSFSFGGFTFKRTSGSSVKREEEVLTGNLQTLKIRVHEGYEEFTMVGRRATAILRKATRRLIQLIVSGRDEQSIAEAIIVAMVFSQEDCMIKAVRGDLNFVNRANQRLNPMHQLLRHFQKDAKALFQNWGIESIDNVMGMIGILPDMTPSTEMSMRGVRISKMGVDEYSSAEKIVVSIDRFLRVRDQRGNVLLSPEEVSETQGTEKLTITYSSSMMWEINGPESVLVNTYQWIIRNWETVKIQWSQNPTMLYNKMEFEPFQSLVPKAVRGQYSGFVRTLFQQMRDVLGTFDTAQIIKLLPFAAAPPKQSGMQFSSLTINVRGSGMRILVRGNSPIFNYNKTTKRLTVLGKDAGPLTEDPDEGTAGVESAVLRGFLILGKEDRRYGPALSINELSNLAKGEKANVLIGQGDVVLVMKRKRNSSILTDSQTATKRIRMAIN
UniProt P37198: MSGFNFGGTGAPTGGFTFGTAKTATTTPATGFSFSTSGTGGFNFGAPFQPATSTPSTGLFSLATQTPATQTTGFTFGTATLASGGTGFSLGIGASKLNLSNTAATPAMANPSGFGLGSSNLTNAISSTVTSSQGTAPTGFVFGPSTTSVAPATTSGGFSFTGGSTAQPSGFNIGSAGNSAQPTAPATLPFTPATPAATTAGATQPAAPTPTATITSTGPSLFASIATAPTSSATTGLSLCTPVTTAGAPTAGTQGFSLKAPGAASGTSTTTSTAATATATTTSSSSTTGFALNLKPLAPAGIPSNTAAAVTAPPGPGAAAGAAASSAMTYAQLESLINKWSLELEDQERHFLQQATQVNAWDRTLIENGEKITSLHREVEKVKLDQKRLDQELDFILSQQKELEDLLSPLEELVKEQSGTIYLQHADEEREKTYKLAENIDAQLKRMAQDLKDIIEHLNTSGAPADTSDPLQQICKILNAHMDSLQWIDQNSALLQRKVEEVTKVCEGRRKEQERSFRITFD
UniProt P52294: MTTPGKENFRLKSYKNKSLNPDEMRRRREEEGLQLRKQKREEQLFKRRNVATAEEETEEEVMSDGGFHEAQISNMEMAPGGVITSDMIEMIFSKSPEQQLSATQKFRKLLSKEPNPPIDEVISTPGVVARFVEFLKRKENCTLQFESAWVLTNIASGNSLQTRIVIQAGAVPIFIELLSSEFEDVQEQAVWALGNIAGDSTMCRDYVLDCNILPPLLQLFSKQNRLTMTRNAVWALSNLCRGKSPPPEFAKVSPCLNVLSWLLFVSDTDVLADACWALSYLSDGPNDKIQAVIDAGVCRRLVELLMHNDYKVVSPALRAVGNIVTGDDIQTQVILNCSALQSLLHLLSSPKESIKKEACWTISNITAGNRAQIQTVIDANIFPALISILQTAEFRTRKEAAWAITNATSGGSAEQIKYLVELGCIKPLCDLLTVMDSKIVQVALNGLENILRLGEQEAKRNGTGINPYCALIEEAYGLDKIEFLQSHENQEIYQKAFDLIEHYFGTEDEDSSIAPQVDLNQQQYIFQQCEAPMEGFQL

The experiment concerns the target PB2-Glc2 of influenza A virus A/WSN/33 (H1N1WSN) (influenza A virus A/WSN/33 (H1N1)) (UniProt P03427). As to the kind of experiment: split reporter.

As to NUP62 (from UniProt P37198 1-522), the binding entry is on record as “binds”.

Regarding KPNA1 (from UniProt P52294 1-538), the binding result is listed as “binds”.

(Values after paper PMC5700371.)
